Reference: the supplement of paper PMC10849652
The other results are listed elsewhere or left out.

The chains behind the UniProt entries cited, without tags or fusion partners. Where a name states a change or a piece, a line headed by the entry shows the natural chain unless it says otherwise.
UniProt P79522: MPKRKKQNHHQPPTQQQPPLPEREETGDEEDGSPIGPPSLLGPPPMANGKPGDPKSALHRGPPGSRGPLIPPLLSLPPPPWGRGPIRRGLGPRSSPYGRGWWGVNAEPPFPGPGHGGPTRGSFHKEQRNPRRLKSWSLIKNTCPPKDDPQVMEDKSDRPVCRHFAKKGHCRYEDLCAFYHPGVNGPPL
UniProt P61289: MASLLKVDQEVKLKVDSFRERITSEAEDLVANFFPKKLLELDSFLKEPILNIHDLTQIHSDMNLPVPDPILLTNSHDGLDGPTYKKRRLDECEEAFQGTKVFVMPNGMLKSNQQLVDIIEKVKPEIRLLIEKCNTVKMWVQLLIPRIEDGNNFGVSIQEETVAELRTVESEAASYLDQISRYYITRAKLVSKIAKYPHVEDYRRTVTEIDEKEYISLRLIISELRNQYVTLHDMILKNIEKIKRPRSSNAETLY
UniProt Q99952: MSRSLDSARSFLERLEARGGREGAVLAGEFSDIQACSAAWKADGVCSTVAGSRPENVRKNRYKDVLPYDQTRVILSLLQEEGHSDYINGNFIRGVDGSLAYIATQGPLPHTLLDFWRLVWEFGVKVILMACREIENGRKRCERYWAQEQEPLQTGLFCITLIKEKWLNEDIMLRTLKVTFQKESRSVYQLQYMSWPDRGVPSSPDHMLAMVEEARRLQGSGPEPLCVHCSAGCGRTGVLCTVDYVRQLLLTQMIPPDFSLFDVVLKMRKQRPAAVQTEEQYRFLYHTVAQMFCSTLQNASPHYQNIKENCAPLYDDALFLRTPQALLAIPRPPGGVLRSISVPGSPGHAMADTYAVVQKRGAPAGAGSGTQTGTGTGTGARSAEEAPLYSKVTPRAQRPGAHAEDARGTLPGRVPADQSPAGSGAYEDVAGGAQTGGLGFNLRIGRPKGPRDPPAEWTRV
UniProt P28072: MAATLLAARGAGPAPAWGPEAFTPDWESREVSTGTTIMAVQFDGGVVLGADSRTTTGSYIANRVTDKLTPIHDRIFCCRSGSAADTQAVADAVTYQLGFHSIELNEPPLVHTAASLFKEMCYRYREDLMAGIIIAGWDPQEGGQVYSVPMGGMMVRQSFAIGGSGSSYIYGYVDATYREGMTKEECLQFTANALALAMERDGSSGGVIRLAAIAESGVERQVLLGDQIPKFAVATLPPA
UniProt Q9H7Z7: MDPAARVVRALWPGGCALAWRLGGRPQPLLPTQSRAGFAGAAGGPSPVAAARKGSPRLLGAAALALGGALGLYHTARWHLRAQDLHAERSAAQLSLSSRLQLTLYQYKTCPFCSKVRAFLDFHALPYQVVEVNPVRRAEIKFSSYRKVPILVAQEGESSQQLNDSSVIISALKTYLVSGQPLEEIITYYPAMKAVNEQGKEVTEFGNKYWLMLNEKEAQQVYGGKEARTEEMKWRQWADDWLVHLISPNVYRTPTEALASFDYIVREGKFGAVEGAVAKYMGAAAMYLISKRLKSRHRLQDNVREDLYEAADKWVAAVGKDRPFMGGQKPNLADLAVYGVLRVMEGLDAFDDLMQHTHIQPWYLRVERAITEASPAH
UniProt Q86Y79: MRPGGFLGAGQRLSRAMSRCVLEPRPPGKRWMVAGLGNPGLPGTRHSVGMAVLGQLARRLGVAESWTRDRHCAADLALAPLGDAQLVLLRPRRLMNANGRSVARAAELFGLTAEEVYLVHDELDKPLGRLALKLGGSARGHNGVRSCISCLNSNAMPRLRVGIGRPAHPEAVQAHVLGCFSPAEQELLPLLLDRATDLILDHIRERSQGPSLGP
UniProt P28066: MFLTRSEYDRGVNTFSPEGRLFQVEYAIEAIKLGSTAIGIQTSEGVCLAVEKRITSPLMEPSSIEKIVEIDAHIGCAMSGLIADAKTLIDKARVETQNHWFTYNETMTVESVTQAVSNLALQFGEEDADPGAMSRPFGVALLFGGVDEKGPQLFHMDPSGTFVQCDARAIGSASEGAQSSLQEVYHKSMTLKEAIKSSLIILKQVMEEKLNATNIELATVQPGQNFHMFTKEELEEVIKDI
UniProt Q16378: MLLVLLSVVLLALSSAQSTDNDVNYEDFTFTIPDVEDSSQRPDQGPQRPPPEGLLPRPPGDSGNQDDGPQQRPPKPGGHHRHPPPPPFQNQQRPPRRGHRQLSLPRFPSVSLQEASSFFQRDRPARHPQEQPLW
UniProt Q99460, whole entry, looked up: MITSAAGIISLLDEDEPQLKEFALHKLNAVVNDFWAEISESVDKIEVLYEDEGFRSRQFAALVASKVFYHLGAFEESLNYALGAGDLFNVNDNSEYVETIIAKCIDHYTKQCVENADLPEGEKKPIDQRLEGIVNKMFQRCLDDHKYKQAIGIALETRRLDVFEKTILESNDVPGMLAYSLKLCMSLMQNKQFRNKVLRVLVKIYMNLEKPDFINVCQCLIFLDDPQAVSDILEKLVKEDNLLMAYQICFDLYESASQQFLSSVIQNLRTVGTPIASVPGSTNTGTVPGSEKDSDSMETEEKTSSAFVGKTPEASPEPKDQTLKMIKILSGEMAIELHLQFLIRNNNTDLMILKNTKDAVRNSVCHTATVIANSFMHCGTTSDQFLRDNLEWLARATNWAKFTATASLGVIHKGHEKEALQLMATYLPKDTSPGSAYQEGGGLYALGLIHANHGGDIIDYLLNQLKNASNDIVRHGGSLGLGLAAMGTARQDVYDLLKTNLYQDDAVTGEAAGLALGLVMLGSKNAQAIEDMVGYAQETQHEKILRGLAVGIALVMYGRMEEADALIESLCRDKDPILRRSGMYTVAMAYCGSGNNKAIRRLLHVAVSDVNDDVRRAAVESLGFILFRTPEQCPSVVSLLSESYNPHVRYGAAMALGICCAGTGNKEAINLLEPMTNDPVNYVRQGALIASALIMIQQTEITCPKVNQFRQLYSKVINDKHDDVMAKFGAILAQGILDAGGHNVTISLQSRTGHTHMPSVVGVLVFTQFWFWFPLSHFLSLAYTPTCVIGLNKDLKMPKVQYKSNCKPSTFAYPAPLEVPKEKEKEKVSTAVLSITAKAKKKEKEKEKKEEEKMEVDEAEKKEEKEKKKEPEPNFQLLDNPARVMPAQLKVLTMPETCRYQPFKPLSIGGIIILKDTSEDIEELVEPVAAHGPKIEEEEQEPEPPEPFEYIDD
UniProt Q8NDX1: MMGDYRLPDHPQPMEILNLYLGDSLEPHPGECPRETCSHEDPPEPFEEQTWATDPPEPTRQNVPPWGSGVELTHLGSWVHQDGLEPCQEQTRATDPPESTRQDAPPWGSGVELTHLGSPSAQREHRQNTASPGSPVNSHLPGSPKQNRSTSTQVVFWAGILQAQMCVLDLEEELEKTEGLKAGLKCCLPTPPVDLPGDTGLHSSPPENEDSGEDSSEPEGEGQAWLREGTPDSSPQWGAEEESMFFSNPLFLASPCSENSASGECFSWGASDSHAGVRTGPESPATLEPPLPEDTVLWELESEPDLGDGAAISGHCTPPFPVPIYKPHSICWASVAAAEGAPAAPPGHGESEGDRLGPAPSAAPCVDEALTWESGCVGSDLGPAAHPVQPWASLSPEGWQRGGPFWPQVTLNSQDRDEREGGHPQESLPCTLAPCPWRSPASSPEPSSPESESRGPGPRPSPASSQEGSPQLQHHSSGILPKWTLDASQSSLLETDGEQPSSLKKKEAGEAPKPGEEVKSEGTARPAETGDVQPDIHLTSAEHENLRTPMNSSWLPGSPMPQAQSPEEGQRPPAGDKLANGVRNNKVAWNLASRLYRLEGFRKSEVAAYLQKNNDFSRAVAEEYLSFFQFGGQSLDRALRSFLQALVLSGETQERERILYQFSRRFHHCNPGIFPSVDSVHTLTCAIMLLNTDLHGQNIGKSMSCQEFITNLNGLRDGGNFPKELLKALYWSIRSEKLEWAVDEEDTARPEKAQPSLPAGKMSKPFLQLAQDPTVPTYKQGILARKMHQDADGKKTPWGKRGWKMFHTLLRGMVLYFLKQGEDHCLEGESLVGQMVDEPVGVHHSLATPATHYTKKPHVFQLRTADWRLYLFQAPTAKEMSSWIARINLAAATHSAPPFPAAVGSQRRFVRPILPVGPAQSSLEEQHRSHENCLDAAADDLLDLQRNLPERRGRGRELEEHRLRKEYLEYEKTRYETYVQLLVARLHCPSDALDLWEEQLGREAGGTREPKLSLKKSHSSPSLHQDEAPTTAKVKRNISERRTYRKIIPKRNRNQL
UniProt A2A3K4: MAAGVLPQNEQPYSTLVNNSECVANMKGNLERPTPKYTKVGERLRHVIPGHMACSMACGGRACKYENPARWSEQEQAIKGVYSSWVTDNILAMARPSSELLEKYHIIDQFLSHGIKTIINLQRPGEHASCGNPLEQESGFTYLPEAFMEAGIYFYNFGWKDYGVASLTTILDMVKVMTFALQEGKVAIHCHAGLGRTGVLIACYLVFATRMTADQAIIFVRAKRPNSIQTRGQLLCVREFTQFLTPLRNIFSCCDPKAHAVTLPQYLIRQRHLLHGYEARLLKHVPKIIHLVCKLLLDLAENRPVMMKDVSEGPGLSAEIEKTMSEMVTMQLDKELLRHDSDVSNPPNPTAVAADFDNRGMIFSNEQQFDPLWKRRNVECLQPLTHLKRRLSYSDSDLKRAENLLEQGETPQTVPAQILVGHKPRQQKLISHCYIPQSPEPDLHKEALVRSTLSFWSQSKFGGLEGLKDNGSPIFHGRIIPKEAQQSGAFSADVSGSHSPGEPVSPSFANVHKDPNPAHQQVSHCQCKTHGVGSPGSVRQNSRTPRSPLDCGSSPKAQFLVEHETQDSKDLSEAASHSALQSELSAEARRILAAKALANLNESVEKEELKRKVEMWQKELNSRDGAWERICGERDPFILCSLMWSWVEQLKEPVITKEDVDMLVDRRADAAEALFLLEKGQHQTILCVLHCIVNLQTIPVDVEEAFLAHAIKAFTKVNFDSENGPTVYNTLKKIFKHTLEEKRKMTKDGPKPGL
UniProt Q92530: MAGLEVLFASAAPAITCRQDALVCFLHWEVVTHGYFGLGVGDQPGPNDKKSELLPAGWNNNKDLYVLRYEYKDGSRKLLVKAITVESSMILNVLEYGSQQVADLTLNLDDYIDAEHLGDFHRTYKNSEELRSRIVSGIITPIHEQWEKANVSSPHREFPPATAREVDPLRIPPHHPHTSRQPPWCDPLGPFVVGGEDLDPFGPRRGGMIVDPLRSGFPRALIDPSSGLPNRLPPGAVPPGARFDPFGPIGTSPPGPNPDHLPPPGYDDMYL
UniProt O75475: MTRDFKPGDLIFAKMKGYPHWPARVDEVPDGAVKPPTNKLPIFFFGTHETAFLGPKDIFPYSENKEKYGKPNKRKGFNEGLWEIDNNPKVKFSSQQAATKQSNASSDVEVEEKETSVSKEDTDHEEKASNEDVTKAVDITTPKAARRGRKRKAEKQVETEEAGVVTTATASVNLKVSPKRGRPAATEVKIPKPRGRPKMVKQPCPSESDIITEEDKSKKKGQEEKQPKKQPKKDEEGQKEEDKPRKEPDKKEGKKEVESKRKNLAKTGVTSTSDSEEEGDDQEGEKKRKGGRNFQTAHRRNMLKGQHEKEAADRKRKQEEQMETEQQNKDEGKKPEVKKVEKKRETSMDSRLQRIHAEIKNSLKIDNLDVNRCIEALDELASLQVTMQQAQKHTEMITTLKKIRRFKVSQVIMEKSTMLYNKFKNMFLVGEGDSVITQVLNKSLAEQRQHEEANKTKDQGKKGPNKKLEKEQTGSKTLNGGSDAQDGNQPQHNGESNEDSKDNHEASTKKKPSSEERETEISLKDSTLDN
UniProt Q15269: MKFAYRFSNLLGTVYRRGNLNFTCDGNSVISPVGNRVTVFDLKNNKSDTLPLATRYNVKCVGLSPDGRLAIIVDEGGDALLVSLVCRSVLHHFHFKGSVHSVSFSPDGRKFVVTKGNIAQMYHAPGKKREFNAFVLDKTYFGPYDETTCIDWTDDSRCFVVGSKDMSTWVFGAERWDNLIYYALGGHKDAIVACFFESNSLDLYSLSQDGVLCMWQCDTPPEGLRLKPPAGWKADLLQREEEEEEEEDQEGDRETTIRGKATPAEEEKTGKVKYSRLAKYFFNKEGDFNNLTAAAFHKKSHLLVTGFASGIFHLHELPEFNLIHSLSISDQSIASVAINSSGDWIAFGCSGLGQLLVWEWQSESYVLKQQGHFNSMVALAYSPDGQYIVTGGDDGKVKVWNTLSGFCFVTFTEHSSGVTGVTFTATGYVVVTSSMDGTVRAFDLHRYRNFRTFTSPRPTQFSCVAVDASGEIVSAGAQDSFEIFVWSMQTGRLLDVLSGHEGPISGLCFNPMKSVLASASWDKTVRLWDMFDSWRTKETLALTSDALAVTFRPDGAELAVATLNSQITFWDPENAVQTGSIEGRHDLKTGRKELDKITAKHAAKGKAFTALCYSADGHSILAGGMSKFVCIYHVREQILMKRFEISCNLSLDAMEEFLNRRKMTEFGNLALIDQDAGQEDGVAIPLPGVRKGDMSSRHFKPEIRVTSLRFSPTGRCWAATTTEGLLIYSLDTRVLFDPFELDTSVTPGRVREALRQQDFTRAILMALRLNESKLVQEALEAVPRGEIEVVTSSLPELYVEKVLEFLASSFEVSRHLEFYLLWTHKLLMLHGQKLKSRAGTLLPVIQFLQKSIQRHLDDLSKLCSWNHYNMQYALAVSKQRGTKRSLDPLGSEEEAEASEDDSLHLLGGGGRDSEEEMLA

Experiments:
Assay in all cases: log2 fold change, soluble protein after heating vs DMSO (PISA); higher = thermal stabilisation; K562 lysate, 10 uM; active = over 0.2 and 3.5 SD of the protein, either way, in both replicates (recomputed)
[1] = compound: CCCS(=O)(=O)Nc1ccc(F)c(C(=O)c2c[nH]c3ncc(-c4ccc(Cl)cc4)cc23)c1F [vemurafenib]
Outline: (§1)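 K562 pellets were dounce-homogenised in PBS pH 7.4 containing 1 mM MgCl2, and the crude extract, at 1 mg/mL protein, was exposed to 10 μM compound for 30 min. Aliquots were heated for 3 min across 48°C-58°C, pooled, brought to 0.5% NP-40 at 4°C and spun at 21,000xg for 90 min, with the supernatant taken as soluble protein. TMTpro 16plex LC-MS/MS with equalised channel sums quantified that protein. Values are log-two fold changes in thermal stability relative to solvent controls, taken from duplicates.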

[2] = compound: CCCS(=O)(=O)Nc1ccc(F)c(C(=O)c2c[nH]c3ncc(Cl)cc23)c1F
Outline: as §1

[3] = compound: CCN(CCCOc1ccc2c(Nc3cc(CC(=O)Nc4cccc(F)c4)[nH]n3)ncnc2c1)CCOP(=O)(O)O [barasertib]
Outline: as §1

[4] = compound: CC[C@@H]1C(=O)N(C)c2cnc(Nc3ccc(C(=O)N[C@H]4CC[C@H](N5CCN(CC6CC6)CC5)CC4)cc3OC)nc2N1C(C)C [volasertib]
Outline: as §1

[5] = compound: CCn1c(C(=O)N(C2CC2)C2CC2)cc2c3c(ncn3C)c(Nc3cc(C)n(C)n3)nc21
Outline: as §1

[6] = compound: CN1CCN(CCOc2cc(OC3CCOCC3)c3c(Nc4c(Cl)ccc5c4OCO5)ncnc3c2)CC1 [saracatinib]
Outline: as §1

[7] = compound: CN1CCN(c2nc(C3=C(c4c[nH]c5ccccc45)C(=O)NC3=O)c3ccccc3n2)CC1 [sotrastaurin]
Outline: as §1

[8] = compound: CC[C@@H]1C(=O)N(C)c2cnc(Nc3ccc(C(=O)NC4CCN(C)CC4)cc3OC)nc2N1C1CCCC1
Outline: as §1

[9] = compound: CCn1cc(-c2ccnc3[nH]c(-c4cccc(CN(C)C)c4)cc23)c(-c2ccc(NC(=O)N(C)C)cc2)n1
Outline: as §1

[10] = compound: CN1CCC(CNc2ccc3ncc(-c4cccc(OC(F)(F)F)c4)n3n2)CC1
Outline: as §1

Measured: log2 fold change

PRUNE2 isoform 3 (UniProt Q8WUY3)
inactive: [1] 0.083 | [2] 0.047 | [3] 0.04 | [4] 0.086 | [5] -0.135 | [6] 0.019 | [7] 0.035

PRR3 (UniProt P79522)
inactive: [1] 0.021 | [2] -0.056 | [4] 0.113 | [7] 0.083

PSME3 isoform 2 (UniProt P61289)
inactive: [1] -0.005 | [2] -0.006 | [3] -0.028 | [8] 0.011 | [4] 0.025 | [5] -0.001 | [9] 0.015 | [10] 0.014 | [6] -0.022 | [7] 0.032

PTPN18 (UniProt Q99952)
inactive: [1] 0.046 | [2] 0.008 | [3] 0.248 | [8] -0.033 | [4] 0.053 | [5] -0.075 | [6] -0.092 | [7] 0.001

PSMB6 (UniProt P28072)
inactive: [1] -0.049 | [2] -0.004 | [3] 0.032 | [8] 0.024 | [4] 0.021 | [5] 0.012 | [9] -0.082 | [10] 0.049 | [6] -0.005 | [7] 0.07

PRR14L (UniProt Q5THK1)
inactive: [1] 0.06 | [3] 0.015 | [8] -0.019 | [5] -0.028 | [9] 0.205 | [10] -0.093 | [6] -0.069 | [7] -0.038

PTGES2 (UniProt Q9H7Z7)
active: [1] 0.547
inactive: [2] 0.06 | [3] -0.107 | [8] -0.108 | [4] 0.159 | [5] -0.053 | [9] -0.003 | [10] -0.18 | [6] -0.029 | [7] 0.058

PTRH1 (UniProt Q86Y79)
inactive: [1] 0.189 | [8] 0.049 | [5] -0.009 | [9] -0.473 | [10] -0.033 | [7] -0.061

PSMA5 (UniProt P28066)
inactive: [1] 0.016 | [2] -0.007 | [3] 0.04 | [8] 0.033 | [4] 0.032 | [5] -0.025 | [9] -0.017 | [10] 0.039 | [6] 0.006 | [7] 0.009

PRR4 (UniProt Q16378)
inactive: [1] 0.367 | [2] 0.038 | [8] -0.21 | [4] -0.046 | [5] -0.005 | [9] 0.358
active: [10] -1.21

PSMD1 (UniProt Q99460)
inactive: [1] -0.001 | [2] 0.029 | [3] -0.019 | [8] 0.005 | [4] -0.013 | [5] -0.012 | [9] -0.037 | [10] -0.005 | [6] -0.017 | [7] 0.025

PWP1 (UniProt Q13610)
inactive: [1] -0.09 | [2] 0.019 | [3] 0.012 | [8] -0.032 | [4] -0.004 | [5] -0.023 | [10] -0.039 | [6] 0.01 | [7] -0.021
active: [9] 0.62

PSD4 (UniProt Q8NDX1)
inactive: [1] -0.044 | [2] 0.029 | [3] 0.016 | [8] -0.014 | [4] -0.075 | [5] 0.003 | [9] 0.193 | [10] -0.03 | [6] 0.048 | [7] 0.005

PTPDC1 isoform 2 (UniProt A2A3K4)
inactive: [1] 0.313 | [3] -0.05 | [7] 0.011

PSMF1 (UniProt Q92530)
inactive: [1] 0.025 | [2] -0.016 | [3] 0.064 | [8] 0.097 | [4] 0.025 | [5] 0.049 | [9] -0.219 | [10] 0.149 | [6] 0 | [7] -0.047

PSMD4 (UniProt Q5VWC4)
inactive: [1] 0.069 | [3] -0.001 | [5] 0.039 | [9] -0.188 | [10] -0.05 | [7] 0.038

Two consecutive records already listed, for reference:
PSMB6 (UniProt P28072)
inactive: [1] -0.049 | [2] -0.004 | [3] 0.032 | [8] 0.024 | [4] 0.021 | [5] 0.012 | [9] -0.082 | [10] 0.049 | [6] -0.005 | [7] 0.07

PRR14L (UniProt Q5THK1)
inactive: [1] 0.06 | [3] 0.015 | [8] -0.019 | [5] -0.028 | [9] 0.205 | [10] -0.093 | [6] -0.069 | [7] -0.038

Continuation:

PSIP1 (UniProt O75475)
inactive: [1] 0.037 | [2] 0.001 | [3] -0.027 | [8] 0.046 | [4] 0 | [5] 0.012 | [9] 0.008 | [10] -0.004 | [6] -0.012 | [7] 0.023

PWP2 (UniProt Q15269)
inactive: [1] 0.033 | [2] 0.045 | [3] 0.044 | [8] 0.006 | [4] -0.013 | [5] 0.018 | [9] 0.015 | [10] -0.038 | [6] 0.015 | [7] 0.052
